No constants are given. Whether binding was seen depends on the method and setting. Binding seen in cells or lysates may run through a third protein.

Protein sequences, listed by entry. Tags and fused reporters are not part of them. Lines headed by an entry give the natural chain unless they say otherwise; changes in a name come on top.
UniProt Q8N103: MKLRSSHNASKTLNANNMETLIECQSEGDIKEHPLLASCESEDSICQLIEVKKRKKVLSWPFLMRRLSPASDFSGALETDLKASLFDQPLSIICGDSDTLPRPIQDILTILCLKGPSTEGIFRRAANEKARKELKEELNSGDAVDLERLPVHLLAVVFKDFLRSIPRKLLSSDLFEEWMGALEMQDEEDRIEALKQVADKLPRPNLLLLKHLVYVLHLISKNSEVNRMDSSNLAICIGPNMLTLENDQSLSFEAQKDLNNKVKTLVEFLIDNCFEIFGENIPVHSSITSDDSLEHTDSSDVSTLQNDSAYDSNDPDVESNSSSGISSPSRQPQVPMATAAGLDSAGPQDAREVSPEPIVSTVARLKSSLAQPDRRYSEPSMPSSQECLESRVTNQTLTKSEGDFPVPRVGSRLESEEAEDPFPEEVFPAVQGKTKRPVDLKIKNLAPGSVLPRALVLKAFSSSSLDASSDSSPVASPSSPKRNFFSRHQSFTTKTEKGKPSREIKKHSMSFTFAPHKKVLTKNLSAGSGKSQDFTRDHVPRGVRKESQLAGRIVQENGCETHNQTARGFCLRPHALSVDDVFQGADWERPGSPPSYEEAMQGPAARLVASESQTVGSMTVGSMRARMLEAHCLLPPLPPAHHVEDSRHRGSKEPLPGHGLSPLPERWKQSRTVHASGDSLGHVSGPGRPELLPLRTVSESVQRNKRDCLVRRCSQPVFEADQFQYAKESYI

This is an account of results in article PMC7171161.

One experiment concerns the target T1, Dectin-1 (UniProt Q9BXN2).
T1 sequence: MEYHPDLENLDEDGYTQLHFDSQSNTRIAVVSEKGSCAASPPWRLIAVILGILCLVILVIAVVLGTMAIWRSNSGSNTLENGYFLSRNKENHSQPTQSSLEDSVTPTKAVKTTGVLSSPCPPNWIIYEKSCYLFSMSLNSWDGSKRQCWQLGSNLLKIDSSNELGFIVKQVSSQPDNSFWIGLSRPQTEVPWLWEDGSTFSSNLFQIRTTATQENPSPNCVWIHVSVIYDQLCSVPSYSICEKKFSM
Kind of experiment: co-IP; HEK293T cells transfected with the indicated plasmids; lysis in 0.5% Triton X-100, 20 mM Hepes pH 7.4, 150 mM NaCl; immunoprecipitation with anti-Flag or anti-HA, 4 degrees overnight, immunoblot; for TAGAP with Dectin-1/-2/-3 also in EPHB2-knocked down 293 T cells; for Dectin-1 with EPHB2 also with co-expressed wild-type or K402R Syk.

Another experiment has as its target T2, Dectin-2 (UniProt Q6EIG7).
T2 sequence: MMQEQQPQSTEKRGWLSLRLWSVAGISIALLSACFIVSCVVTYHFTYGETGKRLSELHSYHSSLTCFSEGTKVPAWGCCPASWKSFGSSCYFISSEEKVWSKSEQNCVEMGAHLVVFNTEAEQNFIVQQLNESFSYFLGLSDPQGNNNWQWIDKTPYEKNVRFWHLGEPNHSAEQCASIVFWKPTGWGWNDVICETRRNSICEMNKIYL
The experiment is described as above.

In the case of “TAGAPΔGAP (GAP domain deletion mutant of TAGAP) (from UniProt Q8N103)”, the binding result with Dectin-1 and with Dectin-2 was “no binding” throughout.
